Results reported in publication PMC11377751.
These are yes or no findings as the source states them, for the method shown. In cells and extracts the contact can be indirect. A yes stands for co-enrichment or nearness to the bait. Other partners may have been found.

Protein sequences, listed by entry. Tags and fused reporters are not part of them.
UniProt Q86X60: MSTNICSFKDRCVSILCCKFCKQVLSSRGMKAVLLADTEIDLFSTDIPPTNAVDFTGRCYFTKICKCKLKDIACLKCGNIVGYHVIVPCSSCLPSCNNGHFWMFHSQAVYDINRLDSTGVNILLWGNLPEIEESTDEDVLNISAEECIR
UniProt P15927: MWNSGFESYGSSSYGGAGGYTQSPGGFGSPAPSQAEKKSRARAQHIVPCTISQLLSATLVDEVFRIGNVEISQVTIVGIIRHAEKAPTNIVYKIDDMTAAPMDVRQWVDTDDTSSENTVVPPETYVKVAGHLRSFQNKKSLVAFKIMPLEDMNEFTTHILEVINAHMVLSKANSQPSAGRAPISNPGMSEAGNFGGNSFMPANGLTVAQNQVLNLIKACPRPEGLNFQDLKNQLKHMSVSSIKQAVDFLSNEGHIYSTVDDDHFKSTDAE
UniProt P27694: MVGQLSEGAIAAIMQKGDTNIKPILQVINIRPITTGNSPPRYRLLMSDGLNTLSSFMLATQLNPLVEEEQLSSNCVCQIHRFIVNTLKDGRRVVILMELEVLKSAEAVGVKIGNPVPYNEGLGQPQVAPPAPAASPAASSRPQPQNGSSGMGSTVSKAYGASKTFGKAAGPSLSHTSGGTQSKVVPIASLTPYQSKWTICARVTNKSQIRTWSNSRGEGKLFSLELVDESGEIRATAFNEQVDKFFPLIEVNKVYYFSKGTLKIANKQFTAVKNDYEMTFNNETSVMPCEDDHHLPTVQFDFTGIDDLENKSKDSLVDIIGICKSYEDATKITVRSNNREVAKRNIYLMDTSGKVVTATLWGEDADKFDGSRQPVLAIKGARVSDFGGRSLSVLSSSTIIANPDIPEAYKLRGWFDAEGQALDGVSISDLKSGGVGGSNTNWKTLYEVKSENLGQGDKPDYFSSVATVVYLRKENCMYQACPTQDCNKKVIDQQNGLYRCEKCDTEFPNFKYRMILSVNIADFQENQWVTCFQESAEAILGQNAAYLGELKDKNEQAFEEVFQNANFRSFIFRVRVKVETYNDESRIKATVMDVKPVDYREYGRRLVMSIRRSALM

Target: FLAG-FAM72B (human) (UniProt Q86X60)
Assay: affinity purification with mass spectrometry; FLAG affinity purification from extracts of cells expressing FLAG-FAM72B; immunocomplexes eluted with FLAG peptide; two replicas with a control pulldown each

binding	Substance
binds	RPA2 (from UniProt P15927 1-270)
binds	RPA1 (from UniProt P27694 1-616)
